# Assay results from patent US20070197430A1 (priority 2004, published 2007).
# Assay: peptide made by a vendor (Fmoc solid-phase peptide synthesis; Rink resin; HBTU/DIPEA)
# Conditions: whole synthesis, 214 nm
substance,measurement,value
Acetyl-IAQ(E1)LRRIGD(E2)F-amide,final HPLC purity,95% pure
